# Assay results from the supplement of paper PMC12067093, “Discovery and optimisation of a covalent ligand for TRIM25 and its application to targeted protein ubiquitination” (Chemical Science, 2025).
# The other results are listed elsewhere or left out.
# Compound: Cc1cc(ccc1-c1ccccc1)C(=O)N1CCCN(CC1)C(=O)CCl [compound 10]
# Test: probe-labelled cysteine peptide fold change vs DMSO (competition) (log2 fold change); higher = less target engagement (more negative = stronger competition)
# Conditions: THP-1, incubation time: 4 h
# 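Note: competitive profiling in live THP-1 cells: cysteine peptides tagged with an iodoacetamide desthiobiotin (IA-DTB) probe, intensity after compound treatment relative to DMSO-treated cells.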
Target,probe-labelled cysteine peptide fold change (10 µM),probe-labelled cysteine peptide fold change (50 µM)
PBLD_P30039_24_GNPAAVCLLENELDEDMHQK (UniProt P30039),-0.211,-0.0879
PCBP3_P57721_141_LVVPASQCGSLIGK (UniProt P57721),-0.227,-0.208
PDS5A_Q29RF7_350_FASHCLMNHPDLAK (UniProt Q29RF7),-0.0425,-0.219
PCID2_Q5JVF3_68_CTYAVGNHDFIEAYK (UniProt Q5JVF3),0.477,0.274
PDCD11_Q14690_81_EKFEILSVESLCEGMR (UniProt Q14690),-0.135,-0.379
PDXP_Q96GD0_91_AEQLFSSALCAAR (UniProt Q96GD0),-0.097,-0.0191
PDE3B_Q13370_1059_IFCQLMHHLTENHK (UniProt Q13370),-0.354,-0.491
PDCD11_Q14690_330+333_ACILCVHPR (UniProt Q14690),0.0345,0.0766
PDIA4_P13667_91_DTVLLEFYAPWCGHCK (UniProt P13667),-0.275,-0.932
PCYT1A_P49585_139_YDAVQHCR (UniProt P49585),0.0832,0.236
PDCD4_Q53EL6_288_GTVDCVQAR (UniProt Q53EL6),0.204,-0.0332
PDIA3_P30101_92_VDCTANTNTCNK (UniProt P30101),0.0862,0.179
PDXDC1_Q6P996_425_HSCDALNR (UniProt Q6P996),-0.0568,-0.367
PCID2_Q5JVF3_148_AAELLMSCFR (UniProt Q5JVF3),0.362,0.294
PDHB_P11177_263_EGVECEVINMR (UniProt P11177),0.0305,-0.104
PDF_Q9HBH1_222_IIQHEMDHLQGCLFIDK (UniProt Q9HBH1),0.00861,-0.0472
PCCB_P05166_269_AFENDVDALCNLR (UniProt P05166),-0.156,-0.546
PDS5A_Q29RF7_92_LLVACCLADIFR (UniProt Q29RF7),0.0477,0.676
PDIA6_Q15084_58_EVIQSDSLWLVEFYAPWCGHCQR (UniProt Q15084),-0.0772,-0.194
PDS5A_Q29RF7_430_YCLHGEAGK (UniProt Q29RF7),0.0514,0.0931
PCM1_Q15154_1872_PCYLNILEDEQPLNSAAHK (UniProt Q15154),-0.269,-0.229

Target,probe-labelled cysteine peptide fold change (10 µM),probe-labelled cysteine peptide fold change (50 µM)
PCCB_P05166_291_ECHDPSDRLVPELDTIVPLESTK (UniProt P05166),-0.466,-0.0906
PCNT_O95613_70_EDSALCGGGDICK (UniProt O95613),-0.178,-0.306
PDLIM1_O00151_289_HPECYVCTDCGTNLK (UniProt O00151),0.0195,0.068
PDIA5_Q14554_456_IACAAVDCVK (UniProt Q14554),-0.104,-0.338
PDS5A_Q29RF7_1079+1084_LYTVCDVALCVINSK (UniProt Q29RF7),0.0416,-0.00974
PDXDC1_Q6P996_573_SCLYVGMASDNVDAAELVETIAATAR (UniProt Q6P996),0.0729,0.0799
PDLIM7_Q9NR12_388_AFYMEEGVPYCER (UniProt Q9NR12),-0.17,-0.159
PDIA3_P30101_57_ISDTGSAGLMLVEFFAPWCGHCK (UniProt P30101),-0.169,-0.449
PCBP1_Q15365_109_LVVPATQCGSLIGK (UniProt Q15365),-0.107,-0.243
PDXK_O00764_112_LVYVCDPVLGDKWDGEGSMYVPEDLLPVYK (UniProt O00764),-0.0335,-0.0929
PDLIM7_Q9NR12_370_MTWHVHCFTCAACK (UniProt Q9NR12),0.00418,0.0798
PBK_Q96KB5_70_INPICNDHYR (UniProt Q96KB5),-0.139,-0.279
PCBP2_Q15366-2_302_GYWAGLDASAQTTSHELTIPNDLIGCIIGR (UniProt Q15366),0.32,0.222
PEBP1_P30086_133_CDEPILSNR (UniProt P30086),-0.0287,0.154
PCGF5_Q86SE9_53_TCIVQHFEDSNDCPR (UniProt Q86SE9),0.388,0.504
PCM1_Q15154_876_SDGSENLCTPQQSR (UniProt Q15154),-0.581,-0.711
PCNT_O95613_2059_VLEDCQLPK (UniProt O95613),-0.0417,-0.33
PDXDC1_Q6P996_491_LPVLCCTLQLR (UniProt Q6P996),0.0445,-0.362
PDCL_Q13371_35_CAPASSSVPAEAELAGEGISVNTGPK (UniProt Q13371),-0.437,0.0997
PDCL3_Q9H2J4_127_QGIPLCALINQHLSGLAR (UniProt Q9H2J4),0.279,0.314
PBRM1_Q86U86_1244+1257_DFLSCRPTEIPENDILLCESR (UniProt Q86U86),-0.111,0.0674

Target,probe-labelled cysteine peptide fold change (10 µM),probe-labelled cysteine peptide fold change (50 µM)
PDCD2L_Q9BRP1_100_SQCLQVPER (UniProt Q9BRP1),-0.000226,0.166
PDF_Q9HBH1_132_QVLALELPEALCR (UniProt Q9HBH1),0.151,0.278
PDCD2L_Q9BRP1_191_LQDAVLGAAHPVPPGLPLFLPYYICVADEDDYRDFVNLDHAHSLLR (UniProt Q9BRP1),0.449,0.166
PDLIM7_Q9NR12_311_YLVALGHAYHPEEFVCSQCGK (UniProt Q9NR12),-0.0151,-0.0245
PCYOX1_Q9UHG3_445_CPSIILHDR (UniProt Q9UHG3),-0.0279,0.322
PDS5B_Q9NTI5_943_LPLEYMAICALCAK (UniProt Q9NTI5),0.581,0.468
PDCD11_Q14690_1062_SIKPTHVVVTLEDGIIGCIHASHILDDVPEGTSPTTK (UniProt Q14690),0.0044,0.201
PDCL_Q13371_291_NSATCHSEDSDLEID (UniProt Q13371),-0.381,-0.41
PAXX_Q9BUH6_180_CPGESLINPGFK (UniProt Q9BUH6),-0.392,-0.56
PDS5A_Q29RF7_327_DSDLATQNRPLWQCFLGR (UniProt Q29RF7),0.0727,0.239
PCGF5_Q86SE9_34_GYLIKPTTVTECLHTFCK (UniProt Q86SE9),0.136,0.0991
PDIA6_Q15084_291+297_TCEEHQLCVVAVLPHILDTGAAGR (UniProt Q15084),-0.0901,-0.383
PCCB_P05166_291_DFFNYLPLSSQDPAPVRECHDPSDR (UniProt P05166),-0.474,-0.454
PDP1_Q9P0J1_275_VAFSGATACVAHVDGVDLHVANTGDSR (UniProt Q9P0J1),0.0491,0.315
PDHA1_P08559_222_LPCIFICENNR (UniProt P08559),0.133,-0.277
PDE12_Q6L8Q7_250_LHCTPGDGQR (UniProt Q6L8Q7),0.0594,-0.0481
PDIA6_Q15084_55_EVIQSDSLWLVEFYAPWCGHCQR (UniProt Q15084),-0.183,-0.44
PCNT_O95613_2278_ADTSLPQTQGPGLLCSPGVSAAALALQWAESPPADDHHVQR (UniProt O95613),-0.0716,0.29
PDIA5_Q14554_231_GFPTICYFEK (UniProt Q14554),0.0867,-0.162
PDF_Q9HBH1_172_LVTFPEGCESVAGFLACVPR (UniProt Q9HBH1),0.0175,0.519
PAXBP1_Q9Y5B6_457_GYVQDLLECFSEK (UniProt Q9Y5B6),0.252,0.00768

Target,probe-labelled cysteine peptide fold change (10 µM),probe-labelled cysteine peptide fold change (50 µM)
PDXDC1_Q6P996_481_GEDVDQLVACIESK (UniProt Q6P996),0.0475,-0.348
PDE1A_P54750_406_EAELGLPFSPLCDR (UniProt P54750),-0.0928,0.0509
PCMT1_P22061_102_MVGCTGK (UniProt P22061),0.0209,-0.199
PDIA5_Q14554_305_EHSSVLVMFHAPWCGHCK (UniProt Q14554),-0.084,-0.37
PCM1_Q15154_1717_KIEATGVIQSCAK (UniProt Q15154),-0.433,-0.411
PCNT_O95613_430_CLEDLEFK (UniProt O95613),-0.147,-0.19
PDLIM7_Q9NR12_285_TPVCHQCHK (UniProt Q9NR12),0.0922,-0.0628
PDCD2L_Q9BRP1_260_IAACQEQILR (UniProt Q9BRP1),0.209,0.22
PDCD6IP_Q8WUM4_250_HCIMQANAEYHQSILAK (UniProt Q8WUM4),0.136,-0.313
PARP4_Q9UKK3_380_CKIEHVEQNTEEFLR (UniProt Q9UKK3),-0.349,-0.37
PCNT_O95613_2446_TQEVPTACPDWR (UniProt O95613),-0.19,-0.35
PBRM1_Q86U86_1233_CAVLSFK (UniProt Q86U86),-0.307,-0.164
PDCD11_Q14690_333_ACILCVHPR (UniProt Q14690),-0.105,-0.399
PDCD11_Q14690_535_LPVITCYADAK (UniProt Q14690),-0.0187,0.416
PDS5B_Q9NTI5_573_QLEVLVSPTCSCK (UniProt Q9NTI5),0.0872,0.0208
PDXP_Q96GD0_171_EACAHLRDPECLLVATDRDPWHPLSDGSR (UniProt Q96GD0),-0.186,-0.182
PCK2_Q16822_92_YNNCWLAR (UniProt Q16822),-0.205,-0.141
PCYT1A_P49585_113_NLFPNTYLIVGVCSDELTHNFK (UniProt P49585),-0.00819,0.012
PDHA1_P08559_261_RGDFIPGLRVDGMDILCVR (UniProt P08559),-0.351,-0.614
PATZ1_Q9HBE1_610_KYPCPECGSFFR (UniProt Q9HBE1),0.149,0.151
PDS5A_Q29RF7_1093_SALCNADSPKDPVLPMK (UniProt Q29RF7),-0.0652,-0.516
